# The whole screen tested about 78,000 compounds, of which about 1,800 (2.3%) were called active. Inconclusive means that the source gave no clear call. Such entries were picked first, then a sample of the others. Rule as the data show it: active = inhibition above about 30%; inconclusive = mostly about 10% to 28%; inactive = weaker than that.
# By UniProt entry, the sequences of proteins in these tests, tags left out. Where a name states a change or a piece, a line headed by the entry shows the natural chain unless it says otherwise.
# UniProt Q01638: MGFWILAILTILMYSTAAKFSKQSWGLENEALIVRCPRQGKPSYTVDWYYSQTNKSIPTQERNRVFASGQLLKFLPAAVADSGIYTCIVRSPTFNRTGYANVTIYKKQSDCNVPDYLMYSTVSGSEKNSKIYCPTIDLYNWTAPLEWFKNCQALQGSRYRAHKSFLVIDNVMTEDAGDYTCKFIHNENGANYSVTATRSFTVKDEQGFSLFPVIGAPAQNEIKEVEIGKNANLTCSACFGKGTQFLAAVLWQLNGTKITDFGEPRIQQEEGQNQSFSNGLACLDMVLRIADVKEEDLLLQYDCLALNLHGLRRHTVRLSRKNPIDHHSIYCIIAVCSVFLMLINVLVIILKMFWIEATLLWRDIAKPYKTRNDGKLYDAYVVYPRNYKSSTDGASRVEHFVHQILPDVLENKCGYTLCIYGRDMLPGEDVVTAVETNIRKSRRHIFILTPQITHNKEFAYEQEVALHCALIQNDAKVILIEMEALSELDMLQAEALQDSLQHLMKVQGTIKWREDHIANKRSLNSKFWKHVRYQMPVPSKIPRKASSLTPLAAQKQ
# Biological target: Interleukin-1 receptor-like 1 (Homo sapiens) (UniProt Q01638)
# Experiment: blocks human ST2 binding to IL-33, primary screen, biochemical, AlphaLISA (AID 1259354)
# Conditions: AlphaLISA ST2-Fc/biotin-IL-33 interaction, 1 h; at 17 µM, hits give high values
row,SMILES,inhibition
1,Cc1cc(NS(=O)(=O)c2ccc(NC(=O)COc3ccc(C(C)C)c(C)c3)cc2)nc(C)n1,inactive
2,Cc1ccc(C)c(OCC(=O)Nc2ccccc2C(F)(F)F)c1C,inconclusive: 15%
3,O=C(N1CCN(c2ccccc2)CC1)C(Cl)(Cl)Cl,inconclusive: 19%
4,COc1ccc(F)c(-c2ccc(CNC(C)=O)cn2)c1,inactive
5,O=C(c1ccc2nc3ccccc3c(=O)n2c1)N1CCN(c2ccc(Cl)cc2)CC1,inconclusive: 16%
6,Cc1nn(CCC#N)c(C)c1[C@@H]1C=C[C@@H](NC(=O)c2cccs2)C1,inconclusive: 15%
7,O=C1Nc2ccccc2N(O)N1c1cc(C(F)(F)F)ccc1Cl,inconclusive: 12%
8,CCOC(=O)N1CCN(C(=O)CSCc2ccc(Cl)cc2)CC1,inconclusive: 18%
9,O=C1c2cccc([N+](=O)[O-])c2C(=O)N1n1cnnc1,inactive
10,Cc1ccc(Nc2c(-c3ccco3)nc3ccc(Cl)cn23)cc1,inconclusive: 17%
11,O=c1[nH]c(CN(CCO)CCO)nc2c1C1(CCCCC1)Cc1ccccc1-2,inconclusive: 19%
12,CN1CCC(N(C)c2ccc(-c3nc(CCc4ccccc4)no3)cn2)C1 (stereo unspecified),inconclusive: 17%
13,CCNC(=O)CC1SC(=Nc2ccc(OC)cc2)N(C)C1=O (stereo unspecified),inactive
14,COc1ccc(-c2c3c(=O)n(C)c(=O)n(C)c3cn2-c2cc(C)c(C)cc2N)cc1,inconclusive: 23%
15,COc1cccc(CCNC2CCc3ccccc3C2)c1 (stereo unspecified),inactive
16,Cc1ccc(NC(=O)Cn2nnnc2-c2nonc2N)c(C)c1,inconclusive: 10%
17,Cc1cc(C(=O)N2CCC3(CCCO3)CC2)c2c(=O)[nH]c(=O)n(C)c2n1,inconclusive: 28%
18,COc1ccc(Cl)cc1NC(=O)c1cc(-c2ccc3c(c2)OCO3)on1,inconclusive: 19%
19,COC(=O)CSc1ncc(-c2ccc(F)cc2)c(C2CCCN(C(=O)c3cccc(F)c3)C2)n1 (stereo unspecified),inconclusive: 14%
20,Cc1c(Cl)cccc1N=Cc1nc(-c2ccc(Cl)cc2)oc1O,active: 33%
21,COc1ccc(OC)c(C(=O)c2ccc(C(=O)NC(C)(C)C)cc2)c1,inactive
22,OC1(c2cccc(C(F)(F)F)c2)CCN(Cc2ccsc2)CC1,inconclusive: 15%
23,CN(Cc1cn[nH]c1-c1ccc(F)cc1)C(=O)c1cn2c(n1)CNCC2,inactive
24,Cc1ccccc1-c1cnnc(NCCc2nc(C)c3c(n2)CCCC3)n1,inconclusive: 21%

row,SMILES,inhibition
1,O=C(CCc1ccccc1)Nc1ccnn1C1CCN(Cc2c(F)ccc(F)c2F)CC1,inactive
2,CC(=O)Nc1ccc(CNC(=O)CN2CCC[C@H]2CN2CCCC2)cc1,inconclusive: 17%
3,CCN(CC)S(=O)(=O)c1ccc(C(=O)N2CCN=C2SCc2ccc(C)cc2)cc1,inactive
4,CC1CCc2c(sc(N=Cc3cccnc3)c2C#N)C1 (stereo unspecified),active: 30%
5,O=C(CC1=CCCCC1)N1CCc2c([nH]c3ccccc23)C1c1ccccn1 (stereo unspecified),inactive
6,CC1CCCCN1c1ccc(C(N)=O)cc1NC(=O)Cc1cn2ccsc2n1 (stereo unspecified),inactive
7,CC(=O)Nc1ccc(/C=C2/OC(=O)c3c2cc(C)[nH]c3=O)cc1,active: 46%
8,Cn1nc(-c2ccc(Cl)cc2)c2cc(C(=O)N3CCCCC3)sc21,inactive
9,Cc1cccn2c(=O)c3cc(C#N)c(=N)n(CCOCCO)c3nc12,inconclusive: 15%
10,Clc1ccc(-c2csc(Nc3ncccn3)n2)cc1,inactive
11,O=C(O)c1cccc(NC(=O)c2ccc(-c3ccccc3)cc2)c1,inactive
12,O=C(Cc1ccccc1)Nc1cc(NC(=O)c2ccco2)ccc1Cl,inconclusive: 11%
13,Cc1cc(C(=O)N2CCCC(c3ccn[nH]3)C2)n[nH]1 (stereo unspecified),inconclusive: 10%
14,CCCOc1ccccc1CCN1CCCCC1c1cccnc1 (stereo unspecified),inactive
15,Cc1c(C(=O)NCc2ccco2)oc2ccc(S(=O)(=O)N3CCCC3)cc12,inactive
16,Cc1nc(C)c(CC(=O)N(C)Cc2ccc(C)o2)c(=O)[nH]1,inconclusive: 12%
17,CCCOC1CCCN(c2ncnc3c2CCN(C(=O)C2CC2)C3)C1 (stereo unspecified),inactive
18,CCN(CC)CC(=O)c1c(C)[nH]c2cc(C)ccc12,inactive
19,CC12COc3ccccc3C1c1sc(=O)[nH]c1SC2 (stereo unspecified),active: 32%
20,NC(=O)C1(C(=O)N(C/C=C/c2ccccc2)CCO)CC1,inconclusive: 13%
21,COc1cc(CN2CCCCC2)cc(OC)c1OC,inconclusive: 21%
22,Cc1n[nH]c(C)c1S(=O)(=O)N1CCC(C(=O)Nc2nccs2)CC1,inconclusive: 21%
23,O=C1CSc2ccc(C(=O)N3CCC(Cc4ccccc4)CC3)cc2N1,inactive
24,COc1ccc(NCCNC(=O)c2ccc(Cl)cc2)c([N+](=O)[O-])c1,active: 32%

# An excerpt of these results, bar-delimited:
row | SMILES | inhibition
4 | COc1ccc(F)c(-c2ccc(CNC(C)=O)cn2)c1 | inactive
7 | O=C1Nc2ccccc2N(O)N1c1cc(C(F)(F)F)ccc1Cl | inconclusive: 12%
17 | Cc1cc(C(=O)N2CCC3(CCCO3)CC2)c2c(=O)[nH]c(=O)n(C)c2n1 | inconclusive: 28%
22 | OC1(c2cccc(C(F)(F)F)c2)CCN(Cc2ccsc2)CC1 | inconclusive: 15%
23 | CN(Cc1cn[nH]c1-c1ccc(F)cc1)C(=O)c1cn2c(n1)CNCC2 | inactive

# (cont.)

row,SMILES,inhibition
1,CN(Cc1ccccc1)C(=O)CN1C(=O)/C(=C\c2cccc(Cl)c2)Sc2ccccc21,active: 44%
2,COc1ccc(C)cc1S(=O)(=O)N1CCN(c2nc(C)cc(N(C)C)n2)CC1,inconclusive: 21%
3,Cc1[nH]c2ccc(CNC(=O)c3n[nH]c4c3CC(C)CC4)cc2c1C (stereo unspecified),inconclusive: 24%
4,O=C(Cn1cnc2c(cnn2-c2ccccc2)c1=O)NCC1CCCO1 (stereo unspecified),inactive
5,C=C1CC[C@@H]2[C@](C)(CO[C@@H]3O[C@H](CO)[C@@H](O)[C@H](O)[C@H]3O)CCC[C@@]2(C)[C@@H]1CCC1=CCOC1=O,inconclusive: 11%
6,O=C(Cc1c(C(=O)O)[nH]c2ccccc12)Nc1ccc(F)c(Cl)c1,inactive
7,CC(=O)N[C@H](C)C(=O)N(C)CC1(CO)CCC1,inactive
8,Cc1c(C)c2c(c(C)c1O)CCC(C)(C(=O)N(C)Cc1ncc[nH]1)O2 (stereo unspecified),inconclusive: 20%
9,CN1CCCC2(CCN(c3nc(-c4ccncc4)nc4c3CNC4)C2)C1=O (stereo unspecified),inconclusive: 16%
10,O=C(CN1C(=O)c2ccccc2C1=O)Nc1nc(-c2ccncc2)cs1,active: 36%
11,O=S(=O)(Cc1noc([C@@H]2C[C@@H](O)CN2C2CCOCC2)n1)c1ccc(F)cc1,inconclusive: 15%
12,Cc1ccc(O)c(N=Cc2ccc(Br)c([N+](=O)[O-])c2)c1,inconclusive: 15%
13,c1sc(CN2CCC3(CCOCC3)CC2)cc1CN1CCCC1,inconclusive: 10%
14,CCOC(=O)C1(Cc2ccccc2C(F)(F)F)CCN(C(=O)c2ccccn2)CC1,inactive
15,O=C(Nc1ccc2c(c1)OCO2)c1cc(-c2cccs2)on1,inconclusive: 22%
16,CCc1[nH]c2c(CNC(=O)c3cc(-c4ccccc4O)n[nH]3)cc(F)cc2c1C,inconclusive: 12%
17,CC(C)c1ccc2sc3ccccc3c(=O)c2c1,inactive
18,CN(C)C(=O)[C@@]12CC[C@](C)(C(=O)O1)C2(C)C,inactive
19,COc1cccc2cc(-c3nc(-c4ccc(C)cc4)cs3)c(=O)oc12,inactive
20,CC1CC2c3cccc(C(=O)O)c3C(=O)N2c2ccc(F)cc21 (stereo unspecified),active: 32%
21,Cc1nccn1CCC1CCCCN1C(=O)c1ccc(-n2cnnn2)cc1 (stereo unspecified),inconclusive: 18%
22,CCSc1nc(CC(=O)N[C@@H]2C[C@@H](C(=O)OC)N(C)C2)cs1,inconclusive: 13%
23,COCC1CCCN(C(=O)CCC2(Cc3ccc(OC)c4ccccc34)CCC(=O)N2)C1 (stereo unspecified),inactive
24,CCOC(=O)c1c(C)oc2ccc(OC(=O)c3ccc(Cl)cc3)cc12,inconclusive: 10%

row,SMILES,inhibition
1,O=C1CC(NCc2ccccc2Cn2cccn2)CN1Cc1ccc(F)cc1 (stereo unspecified),inactive
2,O=c1/c(=C/c2ccncc2)sc2n1CN(c1cccc([N+](=O)[O-])c1)CN=2,inconclusive: 21%
3,Cc1cc(OCc2nc(-c3cccnc3)no2)cc(C)c1Br,inconclusive: 11%
4,N#Cc1c(-c2ccc3c(c2)OCO3)nc(N2CCCCC2)[nH]c1=O,inconclusive: 18%
5,CC(C)(C)C1CCc2c(sc3c2C(=O)NC(c2ccncc2)N3)C1 (stereo unspecified),inconclusive: 23%
6,CCN1CCCC1CNC(=O)C1c2cc(OC)c(OC)cc2C(=O)N(C)C1c1ccccc1F (stereo unspecified),inactive
7,Cc1cccn2c(=O)c3cc(C(=O)NC4CCCC4)c(=N)n(C(C)C)c3nc12,inconclusive: 27%
8,COc1ccc(-c2nc(N3CCC(C)CC3)nc3nn4c(C)cc(C)nc4c23)cc1,inactive
9,CCCCN(c1ccccc1)S(=O)(=O)c1cccc2nsnc12,inconclusive: 13%
10,COc1cccc(Oc2nc3c(c(=O)n(C)c(=O)n3C)n2Cc2c(F)cccc2Cl)c1,inconclusive: 12%
11,O=C(/C=C/c1ccc([N+](=O)[O-])s1)Nc1cccc2c1C(=O)c1ccccc1C2=O,inactive
12,Cc1cccc(C)c1OCC(O)CN1CCN(c2ccc(F)cc2)CC1 (stereo unspecified),inactive
13,CN1CCCC1CCNC1CCCCCC1 (stereo unspecified),inactive
14,CC(=O)N1c2ccc(N=Cc3cccc([N+](=O)[O-])c3)cc2CC1C (stereo unspecified),inconclusive: 15%
15,COc1ccc2cc3cc(C(=O)N(C)c4cccc(C)c4)oc3nc2c1,inconclusive: 12%
16,COc1ccc(CNC(=O)C[C@@H]2O[C@H](CNS(=O)(=O)c3ccc(Cl)cc3)[C@@H](O)[C@H]2O)cc1,inconclusive: 12%
17,CCOc1ccc(N(CC)S(=O)(=O)c2cccc3cccnc23)cc1,inactive
18,COC(=O)C(C)(N)Cc1ccc(O)cc1 (stereo unspecified),inactive
19,COc1cccc(-c2nc3cc(N=Cc4cc([N+](=O)[O-])cc(OC)c4O)ccc3o2)c1,inconclusive: 11%
20,Brc1ccc(OCc2nnc3n2CCCCC3)cc1,inconclusive: 15%
21,CC1(C)CC(=O)C2=C(C1)Nc1cc(Cl)ccc1S2,inconclusive: 22%
22,COc1ccc(CN2CCN(Cc3cccc(F)c3)CC2)cc1OC,inconclusive: 23%
23,CCOc1ccc2sc(C=NC3CCCCC3)c(O)c2c1,active: 41%
24,Clc1ccc2c(c1)C1CC(c3cccs3)=NN1C1(CCCC1)O2 (stereo unspecified),inconclusive: 18%

# Source: PubChem BioAssay AID1259354 (Paczesny and Yang Labs, IUPUI and University of Michigan, 2018)
